Data from patent publication EP0868429 (dated 2002).

Test: general procedure: Fmoc solid-phase peptide synthesis; chloromethylated, hydroxymethylated, BHA or p-Me-BHA resin
Conditions: whole synthesis, HPLC

With “PEPTIDE1{[GAB].[dMrp].[dMrp].F.K.[am]}$$$$V2.0” the “purity (crude or final not stated)” value was 98.0%.
In the case of “PEPTIDE1{[GAB].[dMrp].[dMrp].[Mrp].K.[am]}$$$$V2.0”, the “purity (crude or final not stated)” value is reported as 98.0%.

Strings that start with PEPTIDE1 are HELM notation: dots part the residues, brackets hold end groups and non-standard residues.
